Measured values reported in paper PMC4778132, “CC chemokine receptor 10 cell surface presentation in melanocytes is regulated by the novel interaction partner S100A10” (Scientific Reports, 2016).

Columns and labels:
[1] = molecular target: T1, GST-CCR10 CT (C-terminal cytoplasmic tail of human CCR10 fused to GST) (human) (UniProt P46092); assay: SPR; Biacore 3000; GST-CCR10 CT amine-coupled on a CM5 chip; six concentrations of HIS-tagged S100A10 derivative injected; HBS-P buffer (10 mM Hepes pH 7.4, 150 mM NaCl, 0.005% Tween-20), 25 °C; binding to GST alone subtracted; single binding site model, KD by the Scatchard equation; both purified
T1 sequence: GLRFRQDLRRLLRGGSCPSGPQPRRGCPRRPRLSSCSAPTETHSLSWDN

[2] = molecular target: T1, GST-CCR10 CT (C-terminal cytoplasmic tail of human CCR10 fused to GST) (human); assay: pull-down; GST fusion proteins (50 μg) on glutathione sepharose beads incubated with purified protein (10 μg), 2 hours at 4 °C, IP buffer (20 mM Tris-HCl pH 7.5, 25 mM NaCl, 10 mM NaF, 1 mM EDTA, 0.1% Triton-X 100); immunoblot; both purified

binding [1]	binding [2]	Substance
binds	binds	HIS-tagged human S100A10 mutant C82Q
binds	binds	HIS-tagged human S100A10 mutant C82S

Results are given in words; binding and its absence hold for the method and conditions named. Binding can be weak; no strength is given. Tags and fused reporters may be left off the sequences shown.
